Here are results for one molecule from patent US20200048331A1 (CANIMGUIDE THERAPEUTICS, published 2020).

Amino acid sequences for entries named in this document (tags omitted). Residues count along the entry.
UniProt P01589, residues 22-213: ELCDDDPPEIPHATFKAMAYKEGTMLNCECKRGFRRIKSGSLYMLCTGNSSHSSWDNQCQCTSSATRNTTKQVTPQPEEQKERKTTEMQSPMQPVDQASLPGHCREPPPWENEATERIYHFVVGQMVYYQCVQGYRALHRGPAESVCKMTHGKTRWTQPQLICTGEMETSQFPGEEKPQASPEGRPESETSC

These are yes or no findings as the source states them, for the method shown. Some results given as binding are weak or reduced against the parent protein; the word gives no strength.

In this experiment the target is fusion protein of CD25 and the Fc-part of IgG (UniProt P01589). Put plainly: ELISA, CD25-Fc on protein G coated plates, biotinylated IL-2 with or without peptide 3028. In general terms: An ELISA detects its analyte on a solid surface through an enzyme-linked reagent.

VFDEFKPLVEEPQNLIK (Synthetic (CSBio); also called 80) [synthesized albumin peptide 3028 VFDEFKPLVEEPQNLIK]: the binding entry was “binds”.
